According to the supplement of paper PMC6143611:
Counter-ions that a name gives are not always drawn. ± gives the uncertainty stated by the source. This is one part of the list. Part of the spread comes from offsets between plates or batches.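 At 6 dpf, larvae had a heat-shock-induced fluorescent stripe placed in rod outer segments; shedding distance, from stripe to outer segment tip, was measured in confocal stacks, roughly three fish per compound. Controls received 0.2% DMSO vehicle; compounds were flagged for ≥20% change versus same-week control and p < 0.001 (Dunnett test, mixed-effects models).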

The molecules below were run on Danio rerio larva rod photoreceptor outer segment (assay: rod outer segment growth distance Dg, difference from same-week DMSO control mean; higher = more outer segment growth). Conditions: 20 µM; treatment time: 4 days (6-10 dpf).

Structure (SMILES)	rod outer segment growth distance Dg [um]
CC(C)(C)C#Cc1cc(N(C(=O)[C@H]2CC[C@H](C)CC2)[C@H]2CC[C@H](O)CC2)c(C(=O)O)s1 [VX-222 (VCH-222, Lomibuvir)]	-0.29 ± 0.16
CC(C)(C)NS(=O)(=O)c1cncc(-c2cc(F)c3nc(N)nn3c2)c1	-0.94 ± 0.21
Cn1ccnc1S [Methimazole]	0 ± 0.18
CCn1cc(C(=O)O)c(=O)c2cc(F)c(N3CCNCC3)nc21 [Enoxacin]	-0.5 ± 0.21
CC(C)NCC(O)c1ccc(NS(C)(=O)=O)cc1 (stereo unspecified) [Sotalol]	0.73 ± 0.23
COC(c1ccccc1)(c1ccccc1)[C@H](Oc1nc(C)cc(C)n1)C(=O)O [Ambrisentan]	0.98 ± 0.23
O=C(C[S+]([O-])Cc1ccco1)NC/C=C\COc1cc(CN2CCCCC2)ccn1 (stereo unspecified) [Lafutidine]	-0.15 ± 0.24
CCCN[C@H]1CCc2nc(N)sc2C1 [Pramipexole]	0.66 ± 0.29
CC[C@]12C=CCN3CC[C@@]4(c5cc([C@@]6(C(=O)OC)C[C@@H]7C[C@@H](C(C)(F)F)CN(Cc8c6[nH]c6ccccc86)C7)c(OC)cc5N(C)[C@H]4[C@@](O)(C(=O)OC)[C@@H]1OC(C)=O)[C@@H]32 [Vinflunine Tartrate]	0.26 ± 0.2
CO/N=C(\C(=O)N[C@@H]1C(=O)N2C(C(=O)OCOC(=O)C(C)(C)C)=C(/C=C\c3scnc3C)CS[C@H]12)c1csc(N)n1 [Cefditoren Pivoxil]	-0.69 ± 0.32
CN(CCOc1ccc(NS(C)(=O)=O)cc1)CCc1ccc(NS(C)(=O)=O)cc1 [Dofetilide]	0.01 ± 0.2
CCCCCCCCCC(=O)N[C@@H](Cc1c[nH]c2ccccc12)C(=O)N[C@H](CC(N)=O)C(=O)N[C@@H](CC(=O)O)C(=O)N[C@@H]1C(=O)NCC(=O)N[C@@H](CCCN)C(=O)N[C@@H](CC(=O)O)C(=O)N[C@H](C)C(=O)N[C@@H](CC(=O)O)C(=O)NCC(=O)N[C@H](CO)C(=O)N[C@@H]([C@H](C)CC(=O)O)C(=O)N[C@@H](CC(=O)c2ccccc2N)C(=O)O[C@@H]1C [Daptomycin]	0.81 ± 0.27
CCOC(=O)[C@H](CCc1ccccc1)N[C@@H](C)C(=O)N1Cc2cc(OC)c(OC)cc2C[C@H]1C(=O)O [Moexipril HCl]	0.46 ± 0.2
CNC(=O)c1cc(COc2nnc(Nc3ccc(Cl)cc3)c3ccoc23)ccn1 [Telatinib]	-0.73 ± 0.28
CCC[C@@H]1C[C@@H](C(=O)N[C@@H]([C@H]2O[C@H](SC)[C@H](O)[C@@H](O)[C@H]2O)[C@H](C)Cl)N(C)C1 [Clindamycin HCl]	-0.9 ± 0.27
Cc1c(Cc2ccc3ccccc3n2)c2cc(F)ccc2n1CC(=O)O	-0.63 ± 0.15
O=S(=O)(c1ccccc1)c1cnc2c(N3CCNCC3)cccc2c1	-0.73 ± 0.25
CC(C)(F)C[C@H](N[C@@H](c1ccc(-c2ccc(S(C)(=O)=O)cc2)cc1)C(F)(F)F)C(=O)NC1(C#N)CC1 [Odanacatib (MK-0822)]	-0.17 ± 0.19
Cc1cc(Nc2ncnc3ccc(-c4ccc(CNCCS(C)(=O)=O)o4)cc23)ccc1Oc1ccn2ncnc2c1 [HER2-Inhibitor-1]	-0.48 ± 0.13
NC(N)=Nc1nc(CSCC/C(N)=N/S(N)(=O)=O)cs1 [Famotidine]	0.23 ± 0.39
Nc1ccc(S(=O)(=O)Nc2ccccn2)cc1 [Sulfapyridine]	-0.46 ± 0.21
CCCCOc1ccc(C(=O)Nc2ccc(F)cc2F)cc1	0.05 ± 0.17
CO[C@H]1C[C@@H]2CC[C@@H](C)[C@@](O)(O2)C(=O)C(=O)N2CCCC[C@H]2C(=O)O[C@H]([C@H](C)C[C@@H]2CC[C@@H](OCCO)[C@H](OC)C2)CC(=O)[C@H](C)/C=C(\C)[C@@H](O)[C@@H](OC)C(=O)[C@H](C)C[C@H](C)/C=C/C=C/C=C/1C [Everolimus (RAD001)]	-3.9 ± 0.2

These molecules were tested on Danio rerio larva rod photoreceptor outer segment (assay: rod outer segment shedding distance Ds, difference from same-week DMSO control mean; higher = less outer segment shedding). Conditions: 20 µM; treatment time: 4 days (6-10 dpf).

Structure (SMILES)	rod outer segment shedding distance Ds [um]
C[C@]12C=CC(=O)C=C1CC[C@@H]1[C@@H]2C(=O)C[C@@]2(C)[C@H]1CC[C@]2(O)C(=O)CO [Prednisone]	-0.19 ± 0.15
O=C(NC[C@H]1CN(c2ccc(N3CCOCC3=O)cc2)C(=O)O1)c1ccc(Cl)s1 [Rivaroxaban]	0.05 ± 0.12
c1ccc(-c2nn3c(c2-c2ccnc4cc(OCCN5CCOCC5)ccc24)CCC3)nc1	0 ± 0.12
CN1C(C(=O)Nc2ccccn2)=C(O)c2sc(Cl)cc2S1(=O)=O [Lornoxicam]	-0.92 ± 0.29
CC(=O)Nc1ccc(C(=O)Nc2ccccc2N)cc1 [CI994 (Tacedinaline)]	0.6 ± 0.14
O=C(C1CCCCC1)N1CC(=O)N2CCc3ccccc3C2C1 (stereo unspecified) [Praziquantel]	0.49 ± 0.15
COc1cc(CCc2cc(NC(=O)c3ccc(N4CC(C)NC(C)C4)cc3)n[nH]2)cc(OC)c1 (stereo unspecified)	-0.56 ± 0.14
CCCCC1C(=O)N(c2ccccc2)N(c2ccccc2)C1=O [Phenylbutazone]	0.49 ± 0.19
C[C@@H](N)[C@H]1CC[C@H](C(=O)Nc2ccncc2)CC1	-1.19 ± 0.22
Cc1cnc(-c2cnc(NCCNc3ccc(C#N)cn3)nc2-c2ccc(Cl)cc2Cl)[nH]1	0.11 ± 0.17
O=C(CCCCCCC(=O)Nc1ccccc1)NO [Vorinostat (SAHA, MK0683)]	-0.36 ± 0.19
NC(=O)OCC(COC(N)=O)c1ccccc1 [Felbamate]	-0.35 ± 0.2
CCCCCCCCCCCCc1ccc(S(=O)(=O)Nc2nncs2)cc1	-0.47 ± 0.2
COc1ccc2c(c1)c(CC(=O)O)c(C)n2C(=O)c1ccc(Cl)cc1 [Indomethacin]	0.17 ± 0.13
CC(C(=O)O)c1cccc(Oc2ccccc2)c1 (stereo unspecified) [Fenoprofen Calcium]	-0.63 ± 0.15
CC(C)(C)C#Cc1cc(N(C(=O)[C@H]2CC[C@H](C)CC2)[C@H]2CC[C@H](O)CC2)c(C(=O)O)s1 [VX-222 (VCH-222, Lomibuvir)]	-0.77 ± 0.17
CC(C)(C)NS(=O)(=O)c1cncc(-c2cc(F)c3nc(N)nn3c2)c1	-0.28 ± 0.14
Cn1ccnc1S [Methimazole]	0.22 ± 0.14
CCn1cc(C(=O)O)c(=O)c2cc(F)c(N3CCNCC3)nc21 [Enoxacin]	-0.57 ± 0.16

Structure (SMILES)	rod outer segment shedding distance Ds [um]
CC(C)NCC(O)c1ccc(NS(C)(=O)=O)cc1 (stereo unspecified) [Sotalol]	-0.62 ± 0.3
COC(c1ccccc1)(c1ccccc1)[C@H](Oc1nc(C)cc(C)n1)C(=O)O [Ambrisentan]	-0.23 ± 0.27
O=C(C[S+]([O-])Cc1ccco1)NC/C=C\COc1cc(CN2CCCCC2)ccn1 (stereo unspecified) [Lafutidine]	0.88 ± 0.23
CCCN[C@H]1CCc2nc(N)sc2C1 [Pramipexole]	1.02 ± 0.26
CC[C@]12C=CCN3CC[C@@]4(c5cc([C@@]6(C(=O)OC)C[C@@H]7C[C@@H](C(C)(F)F)CN(Cc8c6[nH]c6ccccc86)C7)c(OC)cc5N(C)[C@H]4[C@@](O)(C(=O)OC)[C@@H]1OC(C)=O)[C@@H]32 [Vinflunine Tartrate]	0.14 ± 0.3
CO/N=C(\C(=O)N[C@@H]1C(=O)N2C(C(=O)OCOC(=O)C(C)(C)C)=C(/C=C\c3scnc3C)CS[C@H]12)c1csc(N)n1 [Cefditoren Pivoxil]	-1.06 ± 0.32
CN(CCOc1ccc(NS(C)(=O)=O)cc1)CCc1ccc(NS(C)(=O)=O)cc1 [Dofetilide]	0.28 ± 0.2
CCCCCCCCCC(=O)N[C@@H](Cc1c[nH]c2ccccc12)C(=O)N[C@H](CC(N)=O)C(=O)N[C@@H](CC(=O)O)C(=O)N[C@@H]1C(=O)NCC(=O)N[C@@H](CCCN)C(=O)N[C@@H](CC(=O)O)C(=O)N[C@H](C)C(=O)N[C@@H](CC(=O)O)C(=O)NCC(=O)N[C@H](CO)C(=O)N[C@@H]([C@H](C)CC(=O)O)C(=O)N[C@@H](CC(=O)c2ccccc2N)C(=O)O[C@@H]1C [Daptomycin]	-0.07 ± 0.28
CCOC(=O)[C@H](CCc1ccccc1)N[C@@H](C)C(=O)N1Cc2cc(OC)c(OC)cc2C[C@H]1C(=O)O [Moexipril HCl]	-0.12 ± 0.27
CNC(=O)c1cc(COc2nnc(Nc3ccc(Cl)cc3)c3ccoc23)ccn1 [Telatinib]	-0.87 ± 0.24
CCC[C@@H]1C[C@@H](C(=O)N[C@@H]([C@H]2O[C@H](SC)[C@H](O)[C@@H](O)[C@H]2O)[C@H](C)Cl)N(C)C1 [Clindamycin HCl]	0.4 ± 0.27
Cc1c(Cc2ccc3ccccc3n2)c2cc(F)ccc2n1CC(=O)O	-0.19 ± 0.14
O=S(=O)(c1ccccc1)c1cnc2c(N3CCNCC3)cccc2c1	0.43 ± 0.16
CC(C)(F)C[C@H](N[C@@H](c1ccc(-c2ccc(S(C)(=O)=O)cc2)cc1)C(F)(F)F)C(=O)NC1(C#N)CC1 [Odanacatib (MK-0822)]	-0.73 ± 0.22
Cc1cc(Nc2ncnc3ccc(-c4ccc(CNCCS(C)(=O)=O)o4)cc23)ccc1Oc1ccn2ncnc2c1 [HER2-Inhibitor-1]	-0.31 ± 0.12
NC(N)=Nc1nc(CSCC/C(N)=N/S(N)(=O)=O)cs1 [Famotidine]	-1.4 ± 0.43
Nc1ccc(S(=O)(=O)Nc2ccccn2)cc1 [Sulfapyridine]	0.06 ± 0.18
CCCCOc1ccc(C(=O)Nc2ccc(F)cc2F)cc1	0.4 ± 0.13
CO[C@H]1C[C@@H]2CC[C@@H](C)[C@@](O)(O2)C(=O)C(=O)N2CCCC[C@H]2C(=O)O[C@H]([C@H](C)C[C@@H]2CC[C@@H](OCCO)[C@H](OC)C2)CC(=O)[C@H](C)/C=C(\C)[C@@H](O)[C@@H](OC)C(=O)[C@H](C)C[C@H](C)/C=C/C=C/C=C/1C [Everolimus (RAD001)]	-1.16 ± 0.17

4 records picked at random from the list so far:
Structure (SMILES)	rod outer segment shedding distance Ds [um]
NC(N)=Nc1nc(CSCC/C(N)=N/S(N)(=O)=O)cs1 [Famotidine]	-1.4 ± 0.43
O=C(C[S+]([O-])Cc1ccco1)NC/C=C\COc1cc(CN2CCCCC2)ccn1 (stereo unspecified) [Lafutidine]	0.88 ± 0.23
CCOC(=O)[C@H](CCc1ccccc1)N[C@@H](C)C(=O)N1Cc2cc(OC)c(OC)cc2C[C@H]1C(=O)O [Moexipril HCl]	-0.12 ± 0.27
CCCN[C@H]1CCc2nc(N)sc2C1 [Pramipexole]	1.02 ± 0.26
